Assay results from article PMC10890932.
No constants are given. Whether binding was seen depends on the method and setting. For part of these data: In cells and extracts the contact can be indirect. Some entries that bind do so weakly or less than the wild type. For part of these data: Tags and fused reporters may be left off the sequences shown.

Protein sequences, listed by entry. Tags and fused reporters are not part of them. Lines headed by an entry give the natural chain unless they say otherwise; changes in a name come on top.
UniProt P09874: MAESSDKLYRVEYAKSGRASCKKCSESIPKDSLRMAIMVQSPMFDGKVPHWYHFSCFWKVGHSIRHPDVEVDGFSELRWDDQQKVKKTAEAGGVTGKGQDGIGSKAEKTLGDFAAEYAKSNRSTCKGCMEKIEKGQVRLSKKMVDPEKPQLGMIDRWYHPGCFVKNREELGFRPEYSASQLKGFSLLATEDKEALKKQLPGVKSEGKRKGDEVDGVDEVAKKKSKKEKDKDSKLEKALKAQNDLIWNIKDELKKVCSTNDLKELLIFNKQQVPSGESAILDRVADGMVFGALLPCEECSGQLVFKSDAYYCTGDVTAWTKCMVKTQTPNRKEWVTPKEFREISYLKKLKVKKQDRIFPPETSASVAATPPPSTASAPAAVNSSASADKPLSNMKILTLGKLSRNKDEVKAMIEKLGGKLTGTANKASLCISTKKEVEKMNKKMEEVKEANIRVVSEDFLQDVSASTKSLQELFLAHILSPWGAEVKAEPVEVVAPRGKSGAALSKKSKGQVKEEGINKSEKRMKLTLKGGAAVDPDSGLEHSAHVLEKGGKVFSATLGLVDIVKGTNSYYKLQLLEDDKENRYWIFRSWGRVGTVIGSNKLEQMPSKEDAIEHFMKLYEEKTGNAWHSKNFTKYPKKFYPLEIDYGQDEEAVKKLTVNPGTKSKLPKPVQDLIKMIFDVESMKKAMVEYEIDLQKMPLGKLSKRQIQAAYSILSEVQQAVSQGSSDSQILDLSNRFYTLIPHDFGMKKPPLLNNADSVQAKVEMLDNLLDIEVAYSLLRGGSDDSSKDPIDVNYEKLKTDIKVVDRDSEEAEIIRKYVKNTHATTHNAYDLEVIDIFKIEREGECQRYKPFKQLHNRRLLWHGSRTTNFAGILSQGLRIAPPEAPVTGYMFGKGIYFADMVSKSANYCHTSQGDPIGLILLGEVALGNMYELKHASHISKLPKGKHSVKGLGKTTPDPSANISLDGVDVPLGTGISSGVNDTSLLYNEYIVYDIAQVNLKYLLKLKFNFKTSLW

B1: Transketolase (TKT), endogenous in Hep3B (enzyme, UniProt P29401 1-623)
chain: MESYHKPDQQKLQALKDTANRLRISSIQATTAAGSGHPTSCCSAAEIMAVLFFHTMRYKSQDPRNPHNDRFVLSKGHAAPILYAVWAEAGFLAEAELLNLRKISSDLDGHPVPKQAFTDVATGSLGQGLGAACGMAYTGKYFDKASYRVYCLLGDGELSEGSVWEAMAFASIYKLDNLVAILDINRLGQSDPAPLQHQMDIYQKRCEAFGWHAIIVDGHSVEELCKAFGQAKHQPTAIIAKTFKGRGITGVEDKESWHGKPLPKNMAEQIIQEIYSQIQSKKKILATPPQEDAPSVDIANIRMPSLPSYKVGDKIATRKAYGQALAKLGHASDRIIALDGDTKNSTFSEIFKKEHPDRFIECYIAEQNMVSIAVGCATRNRTVPFCSTFAAFFTRAFDQIRMAAISESNINLCGSHCGVSIGEDGPSQMALEDLAMFRSVPTSTVFYPSDGVATEKAVELAANTKGICFIRTSRPENAIIYNNNEDFQVGQAKVVLKSKDDQVTVIGAGVTLHEALAAAELLKKEKINIRVLDPFTIKPLDRKLILDSARATKGRILTVEDHYYEGGIGEAVSSAVVGEPGITVTHLAVNRVPRSGKPAELLKMFGIDRDAIAQAVRGLITKA

Experiments:
[1] = target: T1, TKT-Flag (human) (UniProt P29401); assay: co-IP; Hep3B cells transfected with TKT-Flag or PARP1-Flag alone, or co-transfected with TKT-Flag and PARP1-His; RIPA lysates before and 5, 30, 60 min after 8 Gy X-Ray; anti-Flag M2 magnetic beads, 2 h at 4 °C; western blotting
T1 sequence: B1 chain

[2] = target: T2, TKT-Flag, recombinant, purified (human) (UniProt P29401); assay: pull-down; purified recombinant TKT and PARP1 incubated together 2 h at 4 °C; captured with TKT antibody and protein A/G beads; washed with TBST; western blotting; both purified
T2 sequence: B1 chain

[3] = target: T3, TKT full-length (plasmid co-transfected with PARP1 truncation mutants) (human) (UniProt P29401); assay: co-IP; Hep3B cells transfected with TKT or PARP1 truncation mutants together with PARP1 or TKT full-length plasmid
T3 sequence: B1 chain

[4] = target: PARP1-Flag (UniProt P09874); assay: co-IP; Hep3B cells transfected with TKT-Flag or PARP1-Flag alone, or co-transfected with TKT-Flag and PARP1-His; RIPA lysates before and 5, 30, 60 min after 8 Gy X-Ray; anti-Flag M2 magnetic beads, 2 h at 4 °C; western blotting

| Molecule | binding [1] | binding [3] | other results |
| --- | --- | --- | --- |
| Poly (ADP-ribose) polymerase 1 (PARP1), endogenous in Hep3B (from UniProt P09874 1-1014) (enzyme) | binds | – | – |
| PARP1-His, recombinant, purified (from UniProt P09874 1-1014) (enzyme) | – | – | binding [2]: binds |
| BRCT domain of PARP1 (truncation mutant) (from UniProt P09874 385-476) (domain or fragment) | – | binds | – |
| WGR domain of PARP1 (truncation mutant) (from UniProt P09874 542-638) (domain or fragment) | – | binds | – |
| PARP1-His (co-transfected in Hep3B) (from UniProt P09874 1-1014) (enzyme) | binds | – | – |
| B1 | – | – | binding [4]: binds |
